The series relates to ConA-induced T-lymphocyte proliferation (spleen cells from BALB/C mice). As to the kind of experiment: T cell function assay: ConA-induced T-lymphocyte proliferation ([3H]-thymidine uptake). The class given is cell-based. The conditions noted are these: for SI: selectivity index, CC50 vs IC50. The method, then: Supplementary Figure 63. Inhibition of concanavalin A (ConA)-induced
T-lymphocyte proliferation by synthetic compounds 1, 31, and 41-43.
Bioassay for the immunosuppressive activities17
Preparation of spleen cells from mice
BALB/C mice were sacrificed and spleens were removed aseptically. A single cell suspension was prepared after cell debris and clumps were removed. Erythrocytes were lysed using ammonium chloride buffer solution. The isolated lymphocytes were washed 3 times with PBS containing 2% FBS, and were re-suspended in RPMI 1640 medium at the indicated concentration. […]
1 x 10^6 of fresh spleen cells were cultured for 48 h at the same conditions as mentioned above. The cultures were stimulated with 5 µg/mL of concanavalin A (ConA) to induce T cells proliferative responses. The compounds were added to cultures with indicated concentrations to test their bioactivities. Proliferation was assessed in terms of uptake of [3H]-thymidine during last 8 h culture pulsing with 25 µCi of [3H]-thymidine for each well, and then cells were harvested onto glass fiber filters by a Basic 96 harvester. The incorporated radioactivity was counted by a liquid scintillation counter (1540 MicroBeta Trilux, Perkin–Elmer Life Sciences).

For the compound `CO[C@H]1[C@@H](O)[C@@H](C)O[C@@H](O[C@H]2[C@@H](OC)C[C@H](O[C@H]3[C@@H](OC)C[C@H](O[C@H]4[C@@H](OC)C[C@@H](O[C@@H]5[C@@H](C)O[C@@]6(C[C@H]5OC)OCO[C@@H]5C[C@H](O[C@@H](C)[C@@]7(O)CCC8C9CC=C%10C[C@@H](O)CC[C@]%10(C)C9CC[C@@]87C)O[C@H](C)[C@H]5O6)O[C@@H]4C)O[C@@H]3C)O[C@@H]2C)[C@@H]1OC(C)=O` (stereo partly drawn) [C1′′′-epi-periploside A (41), C1′′′-epi-periploside A], the SI amounted to 5.8.

`CO[C@H]1[C@@H](O)[C@@H](C)O[C@@H](O[C@H]2[C@@H](OC)C[C@H](O[C@H]3[C@@H](OC)C[C@H](O[C@H]4[C@@H](OC)C[C@H](O[C@@H]5[C@@H](C)O[C@]6(C[C@H]5OC)OCO[C@@H]5C[C@H](O[C@@H](C)[C@@]7(O)CCC8C9CC=C%10C[C@@H](O)CC[C@]%10(C)C9CC[C@@]87C)O[C@H](C)[C@H]5O6)O[C@@H]4C)O[C@@H]3C)O[C@@H]2C)[C@@H]1OC(C)=O` (stereo partly drawn) [C1′′-epi-periploside A (31), C1′′-epi-periploside A] registered an SI of 3.9. Also, under “IC50 against ConA-induced T-lymphocyte proliferation vs periploside A”, the “fold less potent than the natural product” value is on record as ~ 2.4 fold.

Consider `CO[C@@H]1C[C@]2(OCO[C@@H]3C[C@@H](O[C@@H](C)[C@@]4(O)CCC5C6CC=C7C[C@@H](O)CC[C@]7(C)C6CC[C@@]54C)O[C@H](C)[C@H]3O2)O[C@H](C)[C@H]1O` (stereo partly drawn) [Disaccharide 43], for which the SI amounted to 7.5.

`CO[C@@H]1C[C@]2(OCO[C@@H]3C[C@H](O[C@@H](C)[C@@]4(O)CCC5C6CC=C7C[C@@H](O)CC[C@]7(C)C6CC[C@@]54C)O[C@H](C)[C@H]3O2)O[C@H](C)[C@H]1O` (stereo partly drawn) [Disaccharide 42] yielded an SI of 2.1.

In turn, `COC1CC(OC2C(C)OC3(CC2OC)OCOC2CC(OC(C)C4(O)CCC5C6CC=C7CC(O)CCC7(C)C6CCC54C)OC(C)C2O3)OC(C)C1OC1CC(OC)C(OC2CC(OC)C(OC3OC(C)C(O)C(OC)C3OC(C)=O)C(C)O2)C(C)O1` (stereo not drawn) [Periploside A (1), Periploside A] returned an SI of 12.

The record behind these values is PMC4309423, “Total synthesis of periploside A, a unique pregnane hexasaccharide with potent immunosuppressive effects” (Nature Communications, 2015).
